Test [1] has as its target Recombinant CD19 (UniProt P15391). Description: ELISA, recombinant CD19 coated at 1 ug/ml, antibody at 15 ug/ml, anti-human Fc HRP detection; the untreated antibody is the weaker reference. A general note: In an ELISA, binding on a coated surface is turned into a signal by an enzyme label.
Test [2] has the same target. The experiment in a line: SPR, Biacore 8K, antibody captured on protein A chip, recombinant CD19 analyte from 500 nM in 2 fold dilutions; the untreated antibody has the lower Rmax.
For test [3] the target is unchanged. The experiment in a line: ELISA, recombinant CD19 coated at 1 ug/ml, antibody at 15 ug/ml, with or without prior MMP-9 exposure.
Test [4] shares this target. The experiment in a line: ELISA, recombinant CD19 coated at 1 ug/ml, antibody at 15 ug/ml, anti-human Fc HRP detection.
The target is the same in test [5]. Description: SPR, Biacore 8K, antibody captured on protein A chip, recombinant CD19 analyte from 500 nM in 2 fold dilutions. (In SPR one partner is held on a chip, and binding of the other changes the refractive index at the surface.)
Test [6] has the same target. Description: SPR, Biacore 8K, IgG captured at 75 RU on protein A chip, recombinant CD19 analyte from 500 nM in 2 fold dilutions.

Protein sequences, listed by entry. Tags and fused reporters are not part of them. Residues count along the entry.
UniProt P15391, residues 20-291: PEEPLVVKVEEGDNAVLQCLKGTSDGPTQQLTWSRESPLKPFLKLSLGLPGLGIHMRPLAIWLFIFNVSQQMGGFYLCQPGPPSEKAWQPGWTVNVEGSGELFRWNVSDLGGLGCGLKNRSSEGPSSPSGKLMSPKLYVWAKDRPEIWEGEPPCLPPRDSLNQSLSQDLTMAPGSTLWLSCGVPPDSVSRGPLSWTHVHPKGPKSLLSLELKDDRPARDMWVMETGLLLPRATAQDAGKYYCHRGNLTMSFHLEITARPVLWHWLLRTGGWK

Positions count from the first letter of the chain named. Results are given in words; binding and its absence hold for the method and conditions named. Some results given as binding are weak or reduced against the parent protein; the word gives no strength.

B1: D8-MMP9-CAT19 soluble antibody with two variable domains and MMP-9 cleavable linker (untreated) (bispecific antibody, not shown: a dimerising Fc or GST)
heavy: EVQLVESGGGLVQPGRSLKLSCAASGFIFSDYNMAWVRQAPKKGLEWVATIIYDGSSTNHGDSVKGRFTISRDNAKSTLYLQMDSLRSEDTATYYCATRPGPFAYWGQGTLVTVSPLGLAGQVQLQQSGPELVKPGASVKISCKASGYAFSSSWMNWVKQRPGKGLEWIGRIYPGDEDTNYSGKFKDKATLTADKSSTTAYMQLSSLTSEDSAVYFCARSLLYGDYLDYWGQGTTLTVSS
light: DVVLTQTPPTLSATIGQSVSISCRSSQSLLHSNGNTYLHWLLQRPGQSPQFLIYLVSGLGSGVPNRFSGSGSGTDFTLKISGVEAEDLGIYYCVHGTHAWTVGGGTKLELKPLGLAGQIVLTQSPAIMSASPGEKVTMTCSASSSVSYMHWYQQKSGTSPKRWIYDTSKLASGVPDRFSGSGSGTSYFLTINNMEAEDAATYYCQQWNINPLTFGAGTKLELKR
In the case of B1, the binding entry with Recombinant CD19 [1] and with Recombinant CD19 [2] was “binds” in each case.

B2: D8-scrambled-CAT19 soluble antibody with two variable domains and scrambled linker (bispecific antibody, not shown: a dimerising Fc or GST)
heavy: B1 heavy with P116L, L117A, G118L, L119G, A120P
light: B1 light with P112L, L113A, G114L, L115G, A116P
With B2, in the test with Recombinant CD19 [3], the binding result is “binds”.

B3: D8-MMP9-CAT19 cleaved (soluble antibody after treatment with MMP-9) (antibody, V domains shown, not shown: small tags and cut ends; a dimerising Fc or GST)
VH: QVQLQQSGPELVKPGASVKISCKASGYAFSSSWMNWVKQRPGKGLEWIGRIYPGDEDTNYSGKFKDKATLTADKSSTTAYMQLSSLTSEDSAVYFCARSLLYGDYLDYWGQGTTLTVSS
VL: QIVLTQSPAIMSASPGEKVTMTCSASSSVSYMHWYQQKSGTSPKRWIYDTSKLASGVPDRFSGSGSGTSYFLTINNMEAEDAATYYCQQWNINPLTFGAGTKLELKR
On to B3, for which the binding entry in the test with Recombinant CD19 [4] and in the test with Recombinant CD19 [5] was “binds” throughout.

B4: CD-19 monoclonal antibody (CAT19 IgG) (antibody, V domains shown)
VH: B3 VH
VL: B3 VL
B4: the binding result with Recombinant CD19 [6] is “binds”.

The values above are taken from patent US20220033509A1.
